# According to PubChem BioAssay AID1745846 (National Center for Advancing Translational Sciences (NCATS), 2022):
# In all, about 1,400 compounds went through this assay and about 30 (2%) were called active. Roughly 15% stayed inconclusive and do not appear here. Calls come from the whole dose curve; as a rule, active = well fitted inhibition curve with a large enough effect; inconclusive = small, poorly fitted or top-dose-only effect; inactive = flat fitted curve, though single readings scatter. Some of the results follow.
# Assay: Firefly Luciferase Counterscreen for Inhibitors of ATXN expression
# Details: luminescence; series mostly up to 57.5 µM; activity change, negative = inhibition: at the top concentration
# Excerpt: University of Utah School of Medicine, Salt Lake City, Utah
# Spinocerebellar ataxia type 2 (SCA2) is a multisystem neurodegenerative disease caused by a dominantly acting mutation leading to expansion of a polyQ domain in the ataxin-2 protein (ATXN2). SCA2 patients develop progressive ataxia and later lose function in other neuronal systems. Prominent parkinsonian signs develop in some patients. Like many neurodegenerative disorders, no symptomatic or disease-modifying treatments are known.
# The primary objective of the proposed research is to identify compounds inhibiting ATXN2 expression and to test them for efficacy in SCA2 mouse models. We have developed a cell-based assay paired with an in vivo mouse model using identical luciferase expression constructs. This approach takes advantage of an ATXN2-luciferase transgene, with the luciferase gene flanked by the upstream and downstream portions of the ATXN2 gene. Here we describe a 5-7 dose quantitative high thoroughput screen (qHTS) for compounds lowering ATXN2 expression. We screened the NIH Molecular Libraries Small Molecule Repository (MLSMR) and NCGC's mechanistically annotated (MIPE) and drug repurposing (NPC) collections of compounds for lowering expression of an ATXN2-luciferase reporter in HEK-293 cells. The assay is a multiplexed cell viability assay to ensure target reduction in the absence of cytotoxicity. Secondary qHTS assays included a CMV-luciferase reporter expressed in HEK-293 cells as well as a biochemical assay using recombinant luciferase to detect inhibitors of the reporter enzyme. Compounds that inhibit ATXN2 expression but is not cytotoxic were selected for confirmatory and secondary screens.
# PROTOCOL TABLE (as described by Inglese J, Shamu CE and Guy RK. 2007)
# SEQUENCE No. (e.g., 1, 2, 3, etc.); […] (e.g., Cells, Incubation, Reagent, etc.); VALUE; DESCRIPTION.
# 2; Compounds; 23 nL; Kalypsis pintool (Wako USA) equipped with a 1536-well pin head.
# 3; Enzyme; 1 uL; recombinant firefly luciferase (prepared in 50 mM Tris HCl pH7.5, 10 mM MgCl2, 0.05% BSA, 0.01% Tween20) at final concentration of 10 nM. Wells containing buffer only were used as control (set as 100% inhibition when normalizing data).
# 4; Incubation; 10 min; room temperature.
# 5; Detection; Luminescence; Viewlux plate reader (PerkinElmer).
# NOTES (numbers refer to Sequence numbers above)
# 1. Luciferase substrate is added to 1536 well, Greiner white assay plate. Evaporation was prevented by covering assay plates with metal lids containing holes to allow gas diffusion.
# 2. Compounds were added in a dose response manner with the final concentrations of 57, 11.4, 2.28, 0.46, 0.091, 0.018, 0.0037 uM. Vehicle-only plates, with DMSO being pin-transferred to columns 5-48, were inserted uniformly at the beginning and the end of each library to monitor and record any shifts in assay performance.
# 3. Recombinant firefly luciferase (10 nM final concentration) is added to the assay plate.
# 5. End-point luminescence is then measured on the Viewlux (PerkinElmer) imager equipped with a clear emission filter using a 2 sec exposure.
# Inglese J, Shamu CE and Guy RK, Reporting data from high throughput screening of small molecule libraries, Nature Chemical Biology, 2007, 3(8): 438-441. doi.org/10.1038/nchembio0807-438.
# % is set by controls: 0 for no effect and ±100 for the full control effect; potency is the fitted concentration of half-maximal effect.
Compound,"activity change, negative = inhibition",Potency
CCCNC(=O)c1ccc2c(=O)c(O)c(-c3ccc(F)cc3)[nH]c2c1,inactive: -1.96%,
O=C(Nc1ccc2c(c1)CCC2)C1CCN(c2c3c(nc4ncnn24)CCC3)CC1,inactive: -1.56%,
Cc1ccnc(NC(c2ccccc2)c2ccc3cccnc3c2O)c1 (stereo not given),inactive: -12.2%,
CC(=O)Nc1ccc(C(=O)N/N=C/c2cc(Br)cc(Br)c2O)cc1,inactive: -9.63%,
O=C(CCN1C(=O)C2CC=CCC2C1=O)Nc1nc(-c2ccc(F)c(F)c2)cs1 (stereo not given),inactive: -5.62%,
COC(=O)c1cc(Cl)ccc1NCC(N)c1ccccc1 (stereo not given),inactive: -2.83%,
C[C@@H]1CN([C@@H](C)CO)S(=O)(=O)c2ccc(C#CC3CCCCC3)cc2O[C@@H]1CN(C)Cc1cccnc1,inactive: 1.2%,
CCN1c2ccccc2NC2N=C(OC)C(c3ccccc3)C21 (stereo not given),inactive: 1.07%,
c1ccc(Nc2nc(N3CCCCC3)nc(N3CCNCC3)n2)cc1,inactive: 3.18%,
COc1ccc(/C=C/C(O)=C2/C(=O)N(C)C3(C)CC2c2ccccc2O3)cc1 (stereo not given),inactive: -8.99%,
O=C(Nc1ccc(OC(F)(F)F)cc1)N1CCN(c2ccnc3cc(Cl)ccc23)CC1,inactive: 2.31%,
CN(C)c1ccc(CNCCC(Cc2ccccc2)c2ccco2)cc1 (stereo not given),inactive: -0.286%,
CS(=O)(=O)N1CCC(Oc2cccc(C(=O)NCCCC3CCCC3)c2)CC1,inactive: -18.3%,
O=S(=O)(Cc1cc(NCc2ccccc2)nc(-c2ccccn2)n1)c1ccccc1,inactive: -5.07%,
Cc1nc2ccccc2c2oc(C(=O)Nc3ccc(C(C)C)cc3)cc12,inactive: -9.58%,
O=C(COc1nsnc1N1CCOCC1)N/N=C/c1ccccc1O,inactive: -13.4%,
CC1(C)Cc2ccccc2C2=NNC(=O)C2=N1,inactive: -3.52%,
O=C(Nc1ccc(Cl)cc1)Nc1ccc(N2CCCC2)c(S(=O)(=O)Nc2ccccc2Cl)c1,inactive: -1.19%,
COc1ccc(N(C(=O)c2snc(C(N)=O)c2N)C(C(=O)NCc2ccc(F)cc2)c2ccc(O)cc2)cc1 (stereo not given),inactive: 3.26%,
Nc1ccn(C2OC(COP(=O)(O)O)C(O)C2O)c(=O)n1 (stereo not given),inactive: 4.84%,
CCCCC(=O)NC(c1ccc(N(C)C)cc1)c1ccc2cccnc2c1O (stereo not given),inactive: -0.812%,
O=C(/C=C/c1ccco1)Oc1cc(Br)cc(/C=N/NC(=O)c2ccccc2O)c1,,active: 12.6 µM
Cc1cccn2c(Nc3ccccc3)c(-c3ccccn3)nc12,inactive: -9.21%,
COc1ccccc1/C=C1\SC(=S)N(CCC(=O)NC2=NCCS2)C1=O,inactive: -18.4%,
Cc1nc(-c2ccc(F)cc2)c(CC(=O)N(C)CC(=O)Nc2ccc(Cl)c(C(F)(F)F)c2)s1,inactive: -2.48%,

Compound,"activity change, negative = inhibition",Potency
Cc1ccc(Nc2c(-c3ccccn3)nc3cccc(C)n23)cc1,inactive: -6.27%,
Nc1nc(N)c2cc(Sc3ccc4ccccc4c3)ccc2n1,inactive: -1.81%,
Cc1noc(C)c1CSCC(=O)Nc1nc(-c2ccc(F)c(F)c2)cs1,inactive: -7.41%,
Cc1ccc(C(NC(=O)C2CCN(CCOc3ccc(Cl)cc3Cl)CC2)c2ccccn2)cc1 (stereo not given),inactive: -15.3%,
Cc1cccc(OCC(=O)Nc2ccc3c(c2)nc(CCN2CCN(c4ccccn4)CC2)n3C)c1,inactive: -8.57%,
CC(=O)Nc1sc2c(c1-c1nc3ccccc3s1)CN(C(C)C)CC2,inactive: 0.271%,
CC1(C)Cc2ccccc2C(NNC(=O)c2ccccn2)=N1,inactive: 0.45%,
OCCNc1c2ccccc2nc2ccccc12,inactive: -4.32%,
O=C(CSc1ccc2c(c1)OCCO2)Nc1ccc(Cl)cn1,inactive: -15.3%,
COc1ccc(Br)cc1C(=O)NC(=S)Nc1ccc(CN2CCOCC2)cc1,inactive: -13.5%,
Cc1[nH]n2c(=O)cc(C(C)(C)C)nc2c1-c1ccccc1,inactive: -12.8%,
CC1(C)Cc2c(ccc3ccccc23)C2=C(C(=O)N3CCCC3)C(=O)C(=O)N21,inactive: 1.6%,
NC(Cc1ccccc1)c1csc(Nc2nccc(C(F)(F)F)n2)n1 (stereo not given),inactive: -3.34%,
CCOC(=O)Oc1c(OC)cc(C(=O)O[C@@H]2C[C@@H]3CN4CCc5c([nH]c6cc(OC)ccc56)[C@H]4C[C@@H]3[C@H](C(=O)OC)[C@H]2OC)cc1OC,inactive: 0.594%,
CC1(C)c2[nH]c3ccccc3c2C[C@H]2C(=O)N(Cc3ccccc3F)C(=O)N21,inactive: 2.29%,
CCCCC(=O)NC(c1ccccc1OC)c1ccc2cccnc2c1O (stereo not given),inactive: -0.531%,
CC1=CC(C)(C)Nc2ccc(OC(=O)CN3C(=O)C4CCCCC4C3=O)cc21 (stereo not given),inactive: -4.38%,
COc1ccccc1N(CC(=O)N/N=C(\C)c1ccccc1O)S(=O)(=O)c1ccc(C)cc1,inactive: 0.136%,
CCc1nc2ccc(C(=O)Nc3cccc(NS(C)(=O)=O)c3)cn2c1N(CC)Cc1cccc(Br)c1,inactive: -4.24%,
O=C(N/N=C/c1ccc(O)cc1O)c1ccc(NC(=O)C2CCCCC2)cc1,inactive: 6.11%,
Cc1ccc(S(=O)(=O)Nc2cc(Cl)c(O)c3ncccc23)cc1,inactive: -6.05%,
OC(c1ccccc1)(c1nc(/C=C/c2ccc(C(F)(F)F)cc2)cs1)C(F)(F)F (stereo not given),inactive: -1.18%,
COc1ccc(NC(=S)N(CCCN2CCOCC2)Cc2cn(C)c3ccccc23)cc1,inactive: -1.36%,
O=C(c1ccc(CS(=O)Cc2ccccc2Cl)o1)N1CCN(c2cccc(Cl)c2)CC1 (stereo not given),inactive: -12.9%,
COc1cc2ccnc(Cc3cccc(OC)c3OC)c2cc1OC,inactive: -4.02%,

Compound,"activity change, negative = inhibition",Potency
O=[N+]([O-])c1ccc(/C=N/N=C/c2ccc([N+](=O)[O-])o2)o1,inactive: 1.32%,
COc1ccc(Cc2nnc(N/N=C/c3ccccc3O)[nH]c2=O)cc1OC,inactive: -16.1%,
Oc1cccc(C(Nc2nccs2)c2ccc3cccnc3c2O)c1 (stereo not given),inactive: -9.22%,
CCc1nc2c(OCCC3CCCCC3)cccn2c1N(C=O)Cc1ccc(OC)cc1,inactive: -5.33%,
CCc1noc(C)c1C(=O)N1CCSC1=Nc1cccc(Cl)c1C,inactive: -2.77%,
Cn1c2c(c(=O)n(C)c1=O)C(C(F)(F)F)(C(F)(F)F)N=C(CCC1CCCCC1)N2,inactive: -0.27%,
Cc1ccc(OCCn2cc(/C=N/NC(=O)c3ccncc3)c3ccccc32)cc1,inactive: -19.1%,
Cc1ccc(/C=N/Nc2ccnc3cc(Cl)ccc23)c(C)c1,inactive: -14.5%,
Cc1cnc(C(=O)NNC(=O)c2ccc(Br)cc2)cn1,inactive: -2.36%,
COc1ccc(/C=C2\SC(=S)N(CCCC(=O)NNC(=O)c3ccccc3O)C2=O)cc1,inactive: -6.61%,
COc1ccc(-c2cc(NC=O)c3ncc(-c4cccc(C(=O)NCCN(C)C)c4)n3c2)cc1,inactive: -16.1%,
Cc1ccc(C(=O)NNC(=O)CCCN2C(=O)/C(=C/c3ccccc3Cl)SC2=S)cc1,inactive: -5.14%,
Cn1c(CCc2nc3ccccc3[nH]2)nnc1SCC#N,inactive: 1.34%,
Cc1nc(N2CCN(c3ccccn3)CC2)c2c(C)c(C(=O)N3CCN(c4ccc(F)cc4)CC3)sc2n1,inactive: 18.8%,
Oc1ccc(N2CCN(c3ccnc4cc(Cl)ccc34)CC2)cc1,inactive: -6.51%,
O=[N+]([O-])c1ccc2[nH]cc(S(=O)(=O)N3CCN(c4cccc(Cl)c4)CC3)c2c1,inactive: 2.95%,
C/C(=N\NC(=O)c1cc(C2CC2)nc2ccccc12)c1ccc(O)cc1O,inactive: -7.04%,
O=C(N/N=C/c1ccc([N+](=O)[O-])s1)c1ccccc1,inactive: -19.8%,
C=CCc1cccc(CNc2nc3ccccc3n2C(C)C)c1O,inactive: -8.29%,
C[n+]1c2n(c3ccccc31)N=C(c1ccccc1)CS2,inactive: -2.4%,
Cc1cc(Br)c(OCc2ccc(C(=O)N/N=C3\CC4CC=CC34)cc2)c(Br)c1 (stereo not given),inactive: -4.29%,
CCN(CC(=O)Nc1cccc(OC)c1)CC(=O)Nc1ccc(Br)c(C)c1,inactive: -8.35%,
CCn1cc(CN2CCC(C(=O)Nc3cccc(-c4cccc(Cl)c4)c3)CC2)c(C)n1,inactive: 0.197%,
COc1cccc(Nc2nc(C(N)Cc3ccc(F)cc3)cs2)n1 (stereo not given),inactive: 4.71%,
COc1cccc(-c2nn(C)c3sc(C(=O)NCCCN(C)Cc4ccccc4)cc23)c1,inactive: -0.692%,

Compound,"activity change, negative = inhibition",Potency
CCOc1ccc2[nH]c3c(NCCC(C)C)ncnc3c2c1,inactive: -14.1%,
CC(=O)NC(c1ccc(C)cc1)c1cc(Cl)c2cccnc2c1O (stereo not given),inactive: -14.8%,
O=C1N(c2ccccc2)C[C@@H]2C[C@@H](c3cc4ccccc4o3)N3CCC[C@@]123,inactive: -0.27%,
COc1ccc(CC2C(=O)NC(C)C(=O)N(C)C3Cc4ccc(cc4)Oc4cc(ccc4O)CC(C(=O)NC(C)C(=O)NC(C)C(=O)N2C)N(C)C3=O)cc1 (stereo not given),inactive: -0.0052%,
Cc1cccc(C(=O)N[C@H](C(=O)Nc2ncc(C)s2)C(C)C)c1,inactive: -3.96%,
COc1ccc(-c2csc(Nc3ccc(S(N)(=O)=O)cc3)n2)cc1OC,inactive: -10.9%,
CCCCC(=O)N(CCOC)c1nnc(-c2ccccc2C)s1,inactive: -0.918%,
CCCCn1c2ccc(F)cc2c2nnc(NN)nc21,inactive: -0.632%,
CCN(CC)S(=O)(=O)c1ccc(C)c(NC(=S)N2CCN(c3ccccn3)CC2)c1,inactive: -0.456%,
[O-][n+]1onc2c1CCc1c-2nn(-c2ccccc2Cl)[n+]1[O-],inactive: -2.38%,
CCOC(=O)N(C)c1c(CC)nc2c(OCc3ccccc3OC)cccn12,inactive: -3.91%,
CC(C)Nc1nc(-c2ccccn2)nc(-c2ccccc2)c1C#N,inactive: 1.8%,
Cc1cc(N2CCN(Cc3nc(-c4ccc(Cl)cc4)oc3C)CC2)cc(C)n1,inactive: 0.946%,
COc1ccc(C(=O)NNC(=S)NC(=O)c2ccccc2)cc1,inactive: -14.8%,
COc1cc(/C=C/c2ccc(/C=C/c3cc(OC)c(OC)c(OC)c3)cc2)cc(OC)c1OC,inactive: 2.23%,
O=C(CSc1n[nH]c(-c2ccccn2)n1)Nc1ccccc1,inactive: -13.1%,
CN(c1ccccc1)S(=O)(=O)c1ccc(C(=O)Nc2nnc(-c3ccc(F)cc3)o2)cc1,inactive: -19%,
COc1ccc(C2CC(c3ccccc3C(F)(F)F)=NN2c2ccc(S(N)(=O)=O)cc2)cc1 (stereo not given),inactive: -0.388%,
O=C(CNc1cccc(C(F)(F)F)c1)Nc1cccc(S(=O)(=O)N2CCCC2)c1,inactive: -7.16%,
CC(=O)Oc1ccccc1Cn1c(C)c(C(=O)NCc2ccc(Cl)c(Cl)c2)sc1=O,inactive: 0.728%,
O=C(COc1ccc(Br)cc1CO)Nc1ccc(S(=O)(=O)N2CCCCC2)cc1,inactive: -0.257%,
CN1CCC(N(C)S(=O)(=O)c2ccc(NC(=O)COc3ccc(Br)cc3Cl)cc2)CC1,inactive: -14.6%,
CC(C)N(C(=O)N1CCN(c2ccnc3cc(Cl)ccc23)CC1)C(C)C,inactive: 1.43%,
N#Cc1c(NCCN)nc(-c2ccco2)c2c1CCCC2,inactive: 0.59%,
O=C(CCCN1CCc2[nH]c3ccc(F)cc3c2C1)c1ccc(F)cc1,inactive: 1.89%,
